At least one structure is not confirmed: it was looked up by name or label, or the drawing left a doubt.
Key:
[1] = tested on: MCF-7 cells; experiment: Anti-proliferation effect, estrogen-induced growth of MCF-7 cells; type: cell-based, human; conditions: estrogenic conditions
Experimental: (§1) So as to test the anti-proliferation effect of the retinoids, growth experiments under oestrogenic conditions were carried out on cells MCF-7 and T-47D. These are the human estrogen-dependent mammary cancer cells which express the receptor to RE estrogens. The effect of the molecules is evaluated after 7 days of culture in oestrogenic conditions (estradiol 10^-9 M) by dosing the cellular DNA. The cells are distributed in 24 well plates at a density of 2×10^4 cells per well. The tests with the different retinoids are carried out in triplicate and the culture medium is changed after 4 days of growth.
(§2) The effect of the retinoids on the growth of MCF-7 and T-47D cells is evaluated after 7 days of culture in the presence of 10^-9 M estradiol by dosing the cellular DNA.

[2] = tested on: T-47D cells; experiment: Anti-proliferation effect, estrogen-induced growth of T-47D cells; type: cell-based, human; conditions: estrogenic conditions
Experimental: as §1, §2

C/C(=C\c1ccc(C(=O)O)cc1)c1ccc2c(c1)C(C)(C)CCC2(C)C [TTNPB]
Effect on growth of MCF-7 cells in words [1]: stronger inhibiting effect than the natural ligands
Effect on growth of T-47D cells in words [2]: stronger inhibiting effect than the natural ligands

Reference: patent US6239284A, “Aromatic tetracyclic compounds of the retinoid type method for preparing and use” (priority 1997, dated 2001)
